Sequences of proteins named here, by UniProt entry; tags and fusion partners are left off. A change or cut given only in a name is not applied to a line headed by its entry.
UniProt Q9UNA4: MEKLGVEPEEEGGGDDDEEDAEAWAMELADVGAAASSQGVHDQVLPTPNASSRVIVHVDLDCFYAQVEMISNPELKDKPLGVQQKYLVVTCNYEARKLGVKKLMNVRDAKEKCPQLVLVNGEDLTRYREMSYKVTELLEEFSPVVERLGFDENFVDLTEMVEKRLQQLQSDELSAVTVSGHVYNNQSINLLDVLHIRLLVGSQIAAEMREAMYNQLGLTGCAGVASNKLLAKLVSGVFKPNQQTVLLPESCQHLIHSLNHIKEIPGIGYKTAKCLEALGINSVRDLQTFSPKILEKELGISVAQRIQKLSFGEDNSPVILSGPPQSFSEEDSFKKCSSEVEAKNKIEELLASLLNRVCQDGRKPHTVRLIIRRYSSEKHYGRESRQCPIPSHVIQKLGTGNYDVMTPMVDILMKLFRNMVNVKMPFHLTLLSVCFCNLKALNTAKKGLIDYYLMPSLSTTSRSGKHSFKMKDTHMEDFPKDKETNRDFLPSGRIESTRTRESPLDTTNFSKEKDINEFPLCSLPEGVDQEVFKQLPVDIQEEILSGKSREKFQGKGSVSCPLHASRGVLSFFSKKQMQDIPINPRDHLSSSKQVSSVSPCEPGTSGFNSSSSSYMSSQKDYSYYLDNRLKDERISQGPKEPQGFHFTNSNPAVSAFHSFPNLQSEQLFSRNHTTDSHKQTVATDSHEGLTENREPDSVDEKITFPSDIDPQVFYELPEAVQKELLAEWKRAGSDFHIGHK

Screen size: about 390,000 compounds; about 4,000 (1%) were called active. This list was built around the results that the source calls inconclusive (neither active nor inactive); the mix of calls is not that of the screen. The call rests on the fitted dose curve; in most records, active means well fitted inhibition curve with a large enough effect; inconclusive means small, poorly fitted or top-dose-only effect, or another doubt; inactive means no such curve, though single readings can be large or run the other way. Where the call is inconclusive, the potency comes from a doubtful curve fit.
Each molecule was assayed against DNA polymerase iota (Homo sapiens) (UniProt Q9UNA4) (assay: qHTS for Inhibitors of Polymerase Iota). Settings: Pol iota fluorescent replication assay, 10 min; series mostly up to 115 µM; activity, negative = inhibition: at the top concentration.
Method in brief: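 Fluorescent replication assay read twice, at 0 min and 10 min after adding 50 nM (final) substrate. Enzyme (10 nM) and compounds were first incubated 15 min at room temperature; enzyme-free buffer wells were negative controls.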
With `COc1ccc2c(C)cc(SCc3c(C)noc3C)nc2c1` the Potency was inconclusive: 79.4 µM [inhibitor, single point]. `Cc1ccc(NC2(c3nnnn3-c3c(C)cccc3C)CCCCC2)cc1` was tested, and the Potency was inconclusive: 79.4 µM [inhibitor, partial curve]. In the case of `Oc1ccc(Nc2ncnc3c2oc2ccccc23)cc1`, the Potency was inconclusive: 56.2 µM [inhibitor, partial curve, poor fit]. For `CC(=O)c1ccc(NC2=NS(=O)(=O)c3ccccc32)cc1`, the “activity, negative = inhibition” value was inactive: -7.58%. With `COc1ccc(-n2c(SCC(=O)N3CCCCC3)nc(O)cc2=O)cc1` the Potency was inconclusive: 35.5 µM [inhibitor, full curve]. `COc1cc(NS(=O)(=O)c2ccc(N/C=C(\C#N)c3nc4ccccc4o3)cc2)nc(OC)n1` was tested, and the Potency was inconclusive: 11.2 µM [inhibitor, partial curve]. For `O=C(O)CCc1ccc(-c2ccc(Br)cc2)o1`, the Potency was active: 39.8 µM. With `CC(C)c1nnc(NC(=O)c2nc(S(=O)(=O)Cc3ccc(F)cc3)ncc2Cl)s1` the Potency was inconclusive: 35.5 µM [inhibitor, partial curve, poor fit]. `CC1(C(=O)CSc2nc3ccccc3s2)CCC(=O)O1` (stereo not drawn) was tested, and the Potency was inconclusive: 28.2 µM [inhibitor, partial curve, poor fit]. `CCn1c(=O)c2cc(C(=O)Nc3cc(C)c(Cl)cc3OC)sc2c2ccccc21` was tested, and the “activity, negative = inhibition” value was inactive: 10.3%. For `COc1ccc(NC(=O)CSc2nc3ccccc3n2CC(=O)N2CCCC(C)C2)cc1` (stereo not drawn), the “activity, negative = inhibition” value was inactive: -2.05%. `COC(=O)c1ccc(NC(=O)CS(=O)(=O)Cc2ccccc2)cc1` was tested, and the Potency was inconclusive: 39.8 µM [inhibitor, partial curve, poor fit]. For `N#CCC(=O)Nc1ccc(C(=O)OCC(=O)NNC(=O)c2ccc(Cl)cc2)cc1`, the Potency was inconclusive: 25.1 µM [inhibitor, partial curve]. In the case of `O=C(O)c1[nH]c2ccccc2c1C(c1cc(Br)ccc1O)c1c(C(=O)O)[nH]c2ccccc12`, the Potency was inconclusive: 63.1 µM [inhibitor, single point]. For `CCCN1CCN(C(=O)c2ccc(-c3ccc([N+](=O)[O-])cc3)o2)CC1`, the Potency was inconclusive: 28.2 µM [inhibitor, full curve]. In the case of `CCc1c(C)nc(N)n2c(SCC(=O)NC3CCCCC3)nnc12`, the Potency was inconclusive: 89.1 µM [inhibitor, single point]. With `CCCCCCC(=O)N(O)C1CC(=O)N(c2ccc(Cl)cc2)C1=O` (stereo not drawn) the “activity, negative = inhibition” value was inactive: -1.83%. For `Cc1ccnc(NC(=O)c2ccc(S(=O)(=O)NCc3ccco3)cc2)c1`, the Potency was inconclusive: 89.1 µM [inhibitor, single point].

— PubChem BioAssay AID588590 (National Center for Advancing Translational Sciences (NCATS), 2011)
Potency means the concentration at half of the fitted maximal effect.
